Assay results published in the supplement of paper PMC12595434, “Development of retinoid nuclear receptor pathway antagonists through targeting aldehyde dehydrogenase 1A3” (iScience, 2025).
This is one part of the list. The data scatter; read single values as rough.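 Tm was set to 64 °C where no melting was found, and many curves are irregular.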

Sequences of proteins named here, by UniProt entry; tags and fusion partners are left off. A change or cut given only in a name is not applied to a line headed by its entry.
UniProt Q9NSB8: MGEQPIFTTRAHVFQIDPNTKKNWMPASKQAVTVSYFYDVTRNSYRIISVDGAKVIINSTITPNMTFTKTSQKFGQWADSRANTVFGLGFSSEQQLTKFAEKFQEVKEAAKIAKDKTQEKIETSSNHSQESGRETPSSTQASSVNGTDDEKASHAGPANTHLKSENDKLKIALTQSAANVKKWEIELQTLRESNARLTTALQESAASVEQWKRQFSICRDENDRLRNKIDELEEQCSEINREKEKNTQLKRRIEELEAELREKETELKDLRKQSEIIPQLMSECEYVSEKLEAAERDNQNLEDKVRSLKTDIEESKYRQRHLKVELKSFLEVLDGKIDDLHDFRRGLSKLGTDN
UniProt Q9H9B4: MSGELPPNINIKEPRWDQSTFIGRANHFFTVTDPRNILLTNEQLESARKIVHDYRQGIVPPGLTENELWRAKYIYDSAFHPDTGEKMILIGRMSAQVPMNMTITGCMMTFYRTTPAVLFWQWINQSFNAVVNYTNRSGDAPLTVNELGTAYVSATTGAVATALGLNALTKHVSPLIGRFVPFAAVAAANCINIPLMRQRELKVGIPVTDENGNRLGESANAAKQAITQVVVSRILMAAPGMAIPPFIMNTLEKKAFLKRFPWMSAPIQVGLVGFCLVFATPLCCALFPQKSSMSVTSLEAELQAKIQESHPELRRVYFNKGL
UniProt Q9NR33: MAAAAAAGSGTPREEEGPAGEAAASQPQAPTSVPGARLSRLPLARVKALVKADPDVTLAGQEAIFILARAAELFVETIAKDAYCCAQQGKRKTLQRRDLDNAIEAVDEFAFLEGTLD
UniProt Q9H900: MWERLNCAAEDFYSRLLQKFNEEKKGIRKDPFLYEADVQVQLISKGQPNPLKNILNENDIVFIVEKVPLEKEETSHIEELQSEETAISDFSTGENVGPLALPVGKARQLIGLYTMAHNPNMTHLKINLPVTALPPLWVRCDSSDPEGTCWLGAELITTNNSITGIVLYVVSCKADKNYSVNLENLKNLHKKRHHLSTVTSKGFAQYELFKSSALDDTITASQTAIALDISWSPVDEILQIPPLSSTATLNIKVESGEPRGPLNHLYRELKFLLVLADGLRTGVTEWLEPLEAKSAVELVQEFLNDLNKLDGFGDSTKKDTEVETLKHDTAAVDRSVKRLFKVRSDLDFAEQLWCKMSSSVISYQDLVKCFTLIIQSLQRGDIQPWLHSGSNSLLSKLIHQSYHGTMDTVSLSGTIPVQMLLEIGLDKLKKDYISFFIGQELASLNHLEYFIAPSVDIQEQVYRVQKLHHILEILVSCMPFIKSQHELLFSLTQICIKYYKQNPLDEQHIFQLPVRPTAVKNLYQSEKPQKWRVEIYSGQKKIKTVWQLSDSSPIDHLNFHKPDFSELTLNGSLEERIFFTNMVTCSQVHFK
UniProt Q9NUK0: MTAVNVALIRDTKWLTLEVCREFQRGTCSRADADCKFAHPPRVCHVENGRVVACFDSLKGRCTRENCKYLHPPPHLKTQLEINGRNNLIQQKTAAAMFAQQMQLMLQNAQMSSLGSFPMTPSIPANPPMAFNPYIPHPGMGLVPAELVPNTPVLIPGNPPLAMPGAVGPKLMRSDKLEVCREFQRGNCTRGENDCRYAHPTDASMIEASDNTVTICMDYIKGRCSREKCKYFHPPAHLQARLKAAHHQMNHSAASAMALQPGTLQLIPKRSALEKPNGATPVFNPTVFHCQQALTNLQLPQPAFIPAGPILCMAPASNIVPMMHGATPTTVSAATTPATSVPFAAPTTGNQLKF
UniProt Q9NRX4: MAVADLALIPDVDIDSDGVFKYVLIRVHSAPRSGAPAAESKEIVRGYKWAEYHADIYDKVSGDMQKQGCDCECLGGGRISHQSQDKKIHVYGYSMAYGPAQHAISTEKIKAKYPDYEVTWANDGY
UniProt Q9HBH5: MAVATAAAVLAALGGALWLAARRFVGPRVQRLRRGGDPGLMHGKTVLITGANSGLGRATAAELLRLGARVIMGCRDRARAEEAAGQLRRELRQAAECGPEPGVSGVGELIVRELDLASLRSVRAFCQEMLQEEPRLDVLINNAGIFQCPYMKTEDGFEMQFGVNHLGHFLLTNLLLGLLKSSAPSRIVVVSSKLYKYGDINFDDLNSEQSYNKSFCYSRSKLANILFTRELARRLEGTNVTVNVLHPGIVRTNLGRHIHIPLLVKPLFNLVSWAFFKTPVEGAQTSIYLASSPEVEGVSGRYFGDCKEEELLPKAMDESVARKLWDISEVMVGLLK
UniProt Q9NPB8: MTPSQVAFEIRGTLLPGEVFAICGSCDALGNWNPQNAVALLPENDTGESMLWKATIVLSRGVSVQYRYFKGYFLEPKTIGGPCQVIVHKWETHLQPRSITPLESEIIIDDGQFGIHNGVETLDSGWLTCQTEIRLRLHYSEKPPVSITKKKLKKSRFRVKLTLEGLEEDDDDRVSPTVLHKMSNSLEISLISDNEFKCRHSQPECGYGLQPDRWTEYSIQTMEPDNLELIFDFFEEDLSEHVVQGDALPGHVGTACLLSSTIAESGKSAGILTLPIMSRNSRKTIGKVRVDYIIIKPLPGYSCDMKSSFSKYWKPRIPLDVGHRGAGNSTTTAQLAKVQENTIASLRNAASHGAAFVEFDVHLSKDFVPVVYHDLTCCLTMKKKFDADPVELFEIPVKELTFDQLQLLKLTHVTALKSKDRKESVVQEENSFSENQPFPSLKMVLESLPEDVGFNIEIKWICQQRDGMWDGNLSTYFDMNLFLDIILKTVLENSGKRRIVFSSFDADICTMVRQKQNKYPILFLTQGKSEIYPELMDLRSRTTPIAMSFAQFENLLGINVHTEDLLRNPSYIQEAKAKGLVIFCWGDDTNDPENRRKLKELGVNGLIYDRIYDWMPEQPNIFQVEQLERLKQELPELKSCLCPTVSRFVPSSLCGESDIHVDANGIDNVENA
UniProt Q9NPE2: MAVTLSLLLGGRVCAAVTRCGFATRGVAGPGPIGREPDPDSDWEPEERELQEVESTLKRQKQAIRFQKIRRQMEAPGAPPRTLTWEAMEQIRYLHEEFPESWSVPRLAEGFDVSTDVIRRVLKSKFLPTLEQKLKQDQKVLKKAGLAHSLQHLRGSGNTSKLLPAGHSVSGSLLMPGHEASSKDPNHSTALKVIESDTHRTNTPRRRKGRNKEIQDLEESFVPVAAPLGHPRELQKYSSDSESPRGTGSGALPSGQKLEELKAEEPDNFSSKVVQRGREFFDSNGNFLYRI
UniProt Q9NV31: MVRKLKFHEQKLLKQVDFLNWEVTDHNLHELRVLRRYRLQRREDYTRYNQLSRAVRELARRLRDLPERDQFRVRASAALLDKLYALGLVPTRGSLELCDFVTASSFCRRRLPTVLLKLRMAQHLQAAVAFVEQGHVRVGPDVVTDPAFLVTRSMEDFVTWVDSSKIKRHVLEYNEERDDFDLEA
UniProt Q9H9A6: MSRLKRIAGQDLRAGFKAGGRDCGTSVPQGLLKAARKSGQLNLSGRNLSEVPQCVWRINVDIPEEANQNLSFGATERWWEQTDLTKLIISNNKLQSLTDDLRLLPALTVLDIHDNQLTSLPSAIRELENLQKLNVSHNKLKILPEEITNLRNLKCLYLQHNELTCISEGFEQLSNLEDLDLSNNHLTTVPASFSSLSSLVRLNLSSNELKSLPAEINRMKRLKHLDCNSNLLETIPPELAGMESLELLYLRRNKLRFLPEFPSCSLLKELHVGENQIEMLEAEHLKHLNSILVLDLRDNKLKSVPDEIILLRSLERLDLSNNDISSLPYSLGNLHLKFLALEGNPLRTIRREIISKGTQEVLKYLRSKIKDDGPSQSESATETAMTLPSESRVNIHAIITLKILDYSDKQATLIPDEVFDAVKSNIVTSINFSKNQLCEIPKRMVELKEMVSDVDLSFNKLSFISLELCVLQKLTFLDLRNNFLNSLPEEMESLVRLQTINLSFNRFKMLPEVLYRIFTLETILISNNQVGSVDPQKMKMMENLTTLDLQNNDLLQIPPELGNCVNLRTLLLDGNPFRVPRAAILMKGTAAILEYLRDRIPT
UniProt Q9H9A5, whole entry: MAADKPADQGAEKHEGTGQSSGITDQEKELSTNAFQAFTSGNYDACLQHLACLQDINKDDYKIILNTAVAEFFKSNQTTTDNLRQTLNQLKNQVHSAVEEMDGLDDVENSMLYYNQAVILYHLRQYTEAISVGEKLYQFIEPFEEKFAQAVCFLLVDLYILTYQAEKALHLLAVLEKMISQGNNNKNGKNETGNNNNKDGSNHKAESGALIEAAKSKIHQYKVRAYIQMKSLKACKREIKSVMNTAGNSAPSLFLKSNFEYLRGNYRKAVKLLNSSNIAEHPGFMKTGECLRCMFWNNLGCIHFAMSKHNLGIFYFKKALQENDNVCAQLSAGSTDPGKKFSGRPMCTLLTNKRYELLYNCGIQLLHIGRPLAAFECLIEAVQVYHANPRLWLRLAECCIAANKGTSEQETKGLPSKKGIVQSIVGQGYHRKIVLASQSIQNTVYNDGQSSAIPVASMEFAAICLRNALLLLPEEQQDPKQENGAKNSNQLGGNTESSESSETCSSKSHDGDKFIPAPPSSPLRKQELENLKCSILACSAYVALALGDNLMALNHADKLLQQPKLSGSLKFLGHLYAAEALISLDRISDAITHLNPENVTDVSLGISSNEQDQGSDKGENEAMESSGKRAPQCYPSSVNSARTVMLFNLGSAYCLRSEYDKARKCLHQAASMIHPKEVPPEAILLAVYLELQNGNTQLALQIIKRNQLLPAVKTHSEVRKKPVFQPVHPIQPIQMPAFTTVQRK
UniProt Q9NQ90: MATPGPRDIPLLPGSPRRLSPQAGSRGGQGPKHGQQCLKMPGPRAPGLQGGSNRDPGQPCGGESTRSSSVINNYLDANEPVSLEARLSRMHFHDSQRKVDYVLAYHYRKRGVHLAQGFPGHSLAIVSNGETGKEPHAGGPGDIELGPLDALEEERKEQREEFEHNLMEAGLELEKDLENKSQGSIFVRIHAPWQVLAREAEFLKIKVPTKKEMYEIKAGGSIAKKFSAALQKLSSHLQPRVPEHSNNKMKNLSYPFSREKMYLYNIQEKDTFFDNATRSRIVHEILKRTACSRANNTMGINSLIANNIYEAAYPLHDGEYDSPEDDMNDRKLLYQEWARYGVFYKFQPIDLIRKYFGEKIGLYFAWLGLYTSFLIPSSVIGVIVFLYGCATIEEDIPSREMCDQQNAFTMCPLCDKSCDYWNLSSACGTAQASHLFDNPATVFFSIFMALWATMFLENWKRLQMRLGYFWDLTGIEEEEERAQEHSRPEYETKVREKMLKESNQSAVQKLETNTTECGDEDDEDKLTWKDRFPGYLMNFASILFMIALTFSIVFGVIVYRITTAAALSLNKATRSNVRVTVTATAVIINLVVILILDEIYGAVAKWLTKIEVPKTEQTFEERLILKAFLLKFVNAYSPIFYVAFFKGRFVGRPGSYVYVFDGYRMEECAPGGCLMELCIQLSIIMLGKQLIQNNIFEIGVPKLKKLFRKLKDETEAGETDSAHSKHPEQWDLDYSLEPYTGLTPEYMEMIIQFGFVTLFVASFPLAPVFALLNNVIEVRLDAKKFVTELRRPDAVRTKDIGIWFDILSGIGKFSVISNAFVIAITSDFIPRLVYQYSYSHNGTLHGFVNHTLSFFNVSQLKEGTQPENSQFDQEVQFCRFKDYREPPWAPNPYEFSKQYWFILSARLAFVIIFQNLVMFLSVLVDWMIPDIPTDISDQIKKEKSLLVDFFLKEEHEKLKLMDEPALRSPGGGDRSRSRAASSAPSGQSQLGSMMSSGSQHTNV
UniProt Q9H9H4: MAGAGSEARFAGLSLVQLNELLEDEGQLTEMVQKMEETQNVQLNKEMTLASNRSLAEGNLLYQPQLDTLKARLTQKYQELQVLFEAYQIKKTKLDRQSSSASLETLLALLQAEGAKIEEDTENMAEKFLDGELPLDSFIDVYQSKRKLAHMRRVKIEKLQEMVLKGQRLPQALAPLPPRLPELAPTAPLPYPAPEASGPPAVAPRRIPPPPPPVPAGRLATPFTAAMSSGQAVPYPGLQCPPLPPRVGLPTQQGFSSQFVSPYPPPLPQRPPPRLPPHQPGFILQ
UniProt Q9NS18: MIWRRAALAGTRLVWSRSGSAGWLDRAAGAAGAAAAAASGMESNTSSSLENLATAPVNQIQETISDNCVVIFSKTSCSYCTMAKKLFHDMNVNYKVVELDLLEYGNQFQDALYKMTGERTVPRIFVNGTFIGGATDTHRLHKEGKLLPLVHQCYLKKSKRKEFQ
UniProt Q9NPH0: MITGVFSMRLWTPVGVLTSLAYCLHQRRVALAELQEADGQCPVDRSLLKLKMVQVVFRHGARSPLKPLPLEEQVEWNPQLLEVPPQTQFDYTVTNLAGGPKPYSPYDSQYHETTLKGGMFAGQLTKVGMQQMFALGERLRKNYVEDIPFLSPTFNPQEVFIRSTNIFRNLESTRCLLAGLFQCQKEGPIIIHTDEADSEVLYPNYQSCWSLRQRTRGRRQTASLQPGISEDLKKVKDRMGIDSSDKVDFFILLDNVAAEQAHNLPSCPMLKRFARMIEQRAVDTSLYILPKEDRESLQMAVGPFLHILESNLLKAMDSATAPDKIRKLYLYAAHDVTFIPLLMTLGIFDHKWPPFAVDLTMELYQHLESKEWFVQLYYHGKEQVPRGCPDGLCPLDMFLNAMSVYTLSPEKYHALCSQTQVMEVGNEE

Compound: CCc1cnccc1C(=O)Nc1cc2c(cc1F)NC(=O)CC2
Assay: melting temperature shift (DMSO Tm minus MBE1-treated Tm) in cellular thermal proteome profiling; higher = less thermal stabilization by MBE1 (negative = stabilized by MBE1)
Conditions: A375

Row | Target | melting temperature shift (MBE1 concentration: 100 nM) | melting temperature shift (MBE1 concentration: 1 uM)
1 | UPF2 (UniProt Q9HAU5) | 0.466 °C | 0.177 °C
2 | RPRD1B (UniProt Q9NQG5) | 0.336 °C | -0.531 °C
3 | UQCC1 (UniProt Q9NVA1) | -1.09 °C | 1.37 °C
4 | UniProt Q9NSB8 | -2.53 °C | -0.806 °C
5 | SFXN1 (UniProt Q9H9B4) | -0.879 °C | 0.241 °C
6 | UniProt Q9NU19 | -1.17 °C | -1.26 °C
7 | ETNK1 (UniProt Q9HBU6) | -0.429 °C | -0.0671 °C
8 | UniProt Q9NQ11 | -1.86 °C | 1.15 °C
9 | PDF (UniProt Q9HBH1) | -1.17 °C | -0.647 °C
10 | DROSHA (UniProt Q9NRR4) | -1.53 °C | -1.53 °C
11 | SARS2 (UniProt Q9NP81) | 0.476 °C | 0.0794 °C
12 | PDRG1 (UniProt Q9NUG6) | -2.57 °C | 0.907 °C
13 | UniProt Q9NRF2 | -2.23 °C | -0.109 °C
14 | UniProt Q9NQL2 | -2.45 °C | -3.82 °C
15 | AASDHPPT (UniProt Q9NRN7) | -0.315 °C | 0.263 °C
16 | UniProt Q9NS15 | -0.402 °C | -1.95 °C
17 | SNX15 (UniProt Q9NRS6) | -0.396 °C | 1.21 °C
18 | PANK4 (UniProt Q9NVE7) | -0.484 °C | 0.397 °C
19 | POLE4 (UniProt Q9NR33) | 0.812 °C | 0.434 °C
20 | UniProt Q9H9G7 | -0.971 °C | -3.19 °C
21 | ZWILCH (UniProt Q9H900) | 0.696 °C | -0.739 °C
22 | MRPL17 (UniProt Q9NRX2) | 0.977 °C | 0.537 °C
23 | WDR6 (UniProt Q9NNW5) | 0.256 °C | 0.263 °C
24 | STAU2 (UniProt Q9NUL3) | -0.157 °C | 7.6 °C

Row | Target | melting temperature shift (MBE1 concentration: 100 nM) | melting temperature shift (MBE1 concentration: 1 uM)
25 | UniProt Q9H9L7 | -0.769 °C | -0.0917 °C
26 | MRPS30 (UniProt Q9NP92) | 1.4 °C | 0.476 °C
27 | ZNF277 (UniProt Q9NRM2) | -3.08 °C | 3.07 °C
28 | EMC7 (UniProt Q9NPA0) | -0.475 °C | -0.469 °C
29 | XAB2 (UniProt Q9HCS7) | -0.0705 °C | -0.429 °C
30 | ACTR8 (UniProt Q9H981) | -0.199 °C | -0.199 °C
31 | UniProt Q9NUK0 | -11.7 °C | -8.75 °C
32 | UniProt Q9HCN3 | -1.06 °C | -0.293 °C
33 | FAM49B (UniProt Q9NUQ9) | -0.423 °C | -0.194 °C
34 | UniProt Q9NRW1 | -0.888 °C | -2.92 °C
35 | PHPT1 (UniProt Q9NRX4) | -0.0201 °C | 0.0183 °C
36 | VPS45 (UniProt Q9NRW7) | 0.195 °C | 0.055 °C
37 | RDH14 (UniProt Q9HBH5) | 0.427 °C | 0.287 °C
38 | UniProt Q9HBE1 | -0.237 °C | -0.762 °C
39 | EML4 (UniProt Q9HC35) | 0.372 °C | 0.25 °C
40 | PLEKHA1 (UniProt Q9HB21) | -1.1 °C | -0.641 °C
41 | TIGAR (UniProt Q9NQ88) | 0.458 °C | 0.0611 °C
42 | UniProt Q9H9B1 | -1.62 °C | -0.415 °C
43 | GPCPD1 (UniProt Q9NPB8) | 0.118 °C | -0.0518 °C
44 | UniProt Q9NS73 | -1.59 °C | -4.58 °C
45 | PPAN (UniProt Q9NQ55) | -0.305 °C | -0.128 °C
46 | NGRN (UniProt Q9NPE2) | -2.36 °C | -0.00611 °C
47 | PDS5B (UniProt Q9NTI5) | -1.02 °C | -0.523 °C
48 | FN3KRP (UniProt Q9HA64) | -1.39 °C | -2.42 °C

Row | Target | melting temperature shift (MBE1 concentration: 100 nM) | melting temperature shift (MBE1 concentration: 1 uM)
49 | TXNRD2 (UniProt Q9NNW7) | -2.32 °C | -0.972 °C
50 | LYRM4 (UniProt Q9HD34) | 0.349 °C | -0.168 °C
51 | SACM1L (UniProt Q9NTJ5) | -0.0235 °C | -0.16 °C
52 | IMP3 (UniProt Q9NV31) | -0.725 °C | -0.892 °C
53 | HINT3 (UniProt Q9NQE9) | 1.4 °C | -0.282 °C
54 | HELLS (UniProt Q9NRZ9) | -0.147 °C | -0.147 °C
55 | EXOC1 (UniProt Q9NV70) | -0.696 °C | -0.231 °C
56 | UniProt Q9NUD5 | -0.311 °C | -0.763 °C
57 | KIF15 (UniProt Q9NS87) | -1 °C | -0.186 °C
58 | UniProt Q9H977 | -0.911 °C | -0.0977 °C
59 | LRRC40 (UniProt Q9H9A6) | -0.955 °C | -0.386 °C
60 | MOV10 (UniProt Q9HCE1) | 2.14 °C | 1.29 °C
61 | UniProt Q9HCU8 | -1.14 °C | 0.51 °C
62 | SLC38A10 (UniProt Q9HBR0) | -1.46 °C | 0.421 °C
63 | PDLIM7 (UniProt Q9NR12) | 0.294 °C | -0.33 °C
64 | MDN1 (UniProt Q9NU22) | 0 °C | 0 °C
65 | UniProt Q9NV88 | 0.121 °C | 0.216 °C
66 | EXOSC3 (UniProt Q9NQT5) | 0.0488 °C | 0.202 °C
67 | UniProt Q9NQX7 | -2.42 °C | -1.82 °C
68 | GPN1 (UniProt Q9HCN4) | -0.853 °C | -2.27 °C
69 | CHMP1A (UniProt Q9HD42) | -1.55 °C | 15.7 °C
70 | HEBP1 (UniProt Q9NRV9) | -0.754 °C | 0.843 °C
71 | UniProt Q9HC77 | -2.25 °C | -0.821 °C
72 | UniProt Q9HCM4 | 2.12 °C | 1.03 °C

Row | Target | melting temperature shift (MBE1 concentration: 100 nM) | melting temperature shift (MBE1 concentration: 1 uM)
73 | NMNAT1 (UniProt Q9HAN9) | -1.67 °C | 1.98 °C
74 | CTPS2 (UniProt Q9NRF8) | -0.951 °C | -0.0827 °C
75 | CACYBP (UniProt Q9HB71) | -0.543 °C | -0.449 °C
76 | ABCB10 (UniProt Q9NRK6) | -0.282 °C | 0.503 °C
77 | ELP3 (UniProt Q9H9T3) | 0.147 °C | 1.23 °C
78 | MYO5C (UniProt Q9NQX4) | -0.649 °C | -0.781 °C
79 | UniProt Q9H910 | 2.41 °C | 5.57 °C
80 | SMC4 (UniProt Q9NTJ3) | 0.232 °C | 0.104 °C
81 | LANCL2 (UniProt Q9NS86) | -1.84 °C | -0.065 °C
82 | UniProt Q9HCK5 | -0.55 °C | -3.25 °C
83 | TIMMDC1 (UniProt Q9NPL8) | -3.15 °C | -1.75 °C
84 | UniProt Q9HD40 | -0.861 °C | 2.35 °C
85 | SAR1A (UniProt Q9NR31) | 0.154 °C | 0.00671 °C
86 | ANLN (UniProt Q9NQW6) | -0.551 °C | 0.0513 °C
87 | CNOT10 (UniProt Q9H9A5) | 0.324 °C | 0.165 °C
88 | STARD7 (UniProt Q9NQZ5) | 0.749 °C | 0.335 °C
89 | RIC8A (UniProt Q9NPQ8) | 0.103 °C | 0.103 °C
90 | UniProt Q9NQT8 | -0.87 °C | -0.447 °C
91 | VIPAS39 (UniProt Q9H9C1) | -0.616 °C | -1.09 °C
92 | EIF4ENIF1 (UniProt Q9NRA8) | 0.674 °C | -0.83 °C
93 | UniProt Q9NQ90 | 0.134 °C | 1.24 °C
94 | NCOA5 (UniProt Q9HCD5) | 0.269 °C | -0.177 °C
95 | CLSPN (UniProt Q9HAW4) | -1.27 °C | -0.122 °C
96 | UCK1 (UniProt Q9HA47) | -1.61 °C | -1.56 °C

Another view of part of the listing above:
Row	Target	melting temperature shift (MBE1 concentration: 100 nM)	melting temperature shift (MBE1 concentration: 1 uM)
57	KIF15 (UniProt Q9NS87)	-1 °C	-0.186 °C
58	UniProt Q9H977	-0.911 °C	-0.0977 °C
59	LRRC40 (UniProt Q9H9A6)	-0.955 °C	-0.386 °C
60	MOV10 (UniProt Q9HCE1)	2.14 °C	1.29 °C

Next part:

Row | Target | melting temperature shift (MBE1 concentration: 100 nM) | melting temperature shift (MBE1 concentration: 1 uM)
97 | XPO5 (UniProt Q9HAV4) | 0.16 °C | -0.151 °C
98 | VPS37B (UniProt Q9H9H4) | 0.345 °C | -0.69 °C
99 | ST7 (UniProt Q9NRC1) | -1.56 °C | 0.322 °C
100 | UniProt Q9NT99 | -0.577 °C | 0.672 °C
101 | QTRTD1 (UniProt Q9H974) | -0.055 °C | 0.0611 °C
102 | UniProt Q9NQS7 | 0.648 °C | -0.403 °C
103 | UniProt Q9NQC8 | -1.08 °C | 0.346 °C
104 | UFSP2 (UniProt Q9NUQ7) | 0.953 °C | 0.403 °C
105 | IL1RAP (UniProt Q9NPH3) | -0.718 °C | 1.46 °C
106 | CYLD (UniProt Q9NQC7) | -1.68 °C | -0.452 °C
107 | COPS7B (UniProt Q9H9Q2) | -0.644 °C | 0.523 °C
108 | RRAGC (UniProt Q9HB90) | -4.09 °C | 0.203 °C
109 | SERINC1 (UniProt Q9NRX5) | -1.4 °C | -2.26 °C
110 | UBE2T (UniProt Q9NPD8) | -0.77 °C | -0.0366 °C
111 | ECHDC1 (UniProt Q9NTX5) | -3.39 °C | -2.54 °C
112 | MRGBP (UniProt Q9NV56) | -1.01 °C | 0.53 °C
113 | AGPAT5 (UniProt Q9NUQ2) | -0.244 °C | 0.44 °C
114 | GLRX2 (UniProt Q9NS18) | -2.72 °C | 1.11 °C
115 | HOMER3 (UniProt Q9NSC5) | 1.33 °C | 0.183 °C
116 | ABCF3 (UniProt Q9NUQ8) | -0.442 °C | -0.448 °C
117 | UniProt Q9NR48 | 2.07 °C | 1.96 °C
118 | MED17 (UniProt Q9NVC6) | 0.421 °C | 0.0733 °C
119 | UniProt Q9NPH0 | -0.677 °C | -0.0671 °C
120 | LZTFL1 (UniProt Q9NQ48) | -0.825 °C | -0.557 °C
